This note sets out measurements from PubChem BioAssay AID330 (DTP/NCI, 2004).

SMILES strings stand for the structures. The list shows only some results of the screen, not a fair sample: it gathers tests that were run many times, whatever their T/C, doses with no T/C, and many T/C values between a quarter and a half above the control. Further doses and runs are listed elsewhere. T/C: endpoint of the treated group in % of that of the vehicle group. Some doses have a count of surviving animals in place of a T/C: the source holds a T/C of zero for them, seemingly a mark for toxic or unscored doses. Some survivor counts are full or nearly so, which does not show that the dose was tolerated: survival well below the control is almost never listed, so the zero probably covers shortened survival too. Counts of survivors are from the toxicity check (mostly the fifth day) where no day follows; animals may have died later. Schedule codes are those of the source, read here as Q, the interval in days (D) or hours (H), X, the number of doses. Some entries hold several experiments; their values stand side by side, smallest first. Where survival is the endpoint, the PubChem record calls one and a half times the control and up active, and a quarter to a half above the control has no call in these data; cut-offs in other NCI protocols can differ.

This assay has as its system P388 leukemia ip, CD2F1 mice, survival T/C. Put plainly: NCI In Vivo Anticancer Drug Screen. Data for tumor model P388 Leukemia (intraperitoneal) in CD2F1 (CDF1) mice. To be noted: T/C endpoint: median survival time, higher T/C = longer survival.
Setting [1] is: dose: 60.0 mg/kg/injection, schedule: Q01DX005 (ip), vehicle: saline.
Setting [2] is: dose: 120.0 mg/kg/injection, schedule: Q01DX005 (ip), vehicle: saline.
[3] abbreviates: dose: 240.0 mg/kg/injection, schedule: Q01DX005 (ip), vehicle: saline.
Where [4] appears, read: dose: 100.0 mg/kg/injection, schedule: Q01DX009 (ip), vehicle: saline with Tween-80.
Setting [5] is: dose: 200.0 mg/kg/injection, schedule: Q01DX009 (ip), vehicle: saline with Tween-80.
[6] abbreviates: dose: 240.0 mg/kg/injection, schedule: Q01DX005 (ip), vehicle: saline with Tween-80.
[7] abbreviates: dose: 50.0 mg/kg/injection, schedule: Q01DX009 (ip), vehicle: saline with Tween-80.
[8] abbreviates: dose: 200.0 mg/kg/injection, schedule: Q01DX005 (ip), vehicle: Klucel (hydroxypropylcellulose) (HPC).
[9] abbreviates: dose: 400.0 mg/kg/injection, schedule: Q01DX001 (ip), vehicle: Klucel (hydroxypropylcellulose) (HPC).
The mark [10] stands for this setting: dose: 120.0 mg/kg/injection, schedule: Q01DX005 (ip), vehicle: saline with Tween-80.
[11] abbreviates: dose: 100.0 mg/kg/injection, schedule: Q01DX009 (ip), vehicle: saline.
Setting [12] is: dose: 200.0 mg/kg/injection, schedule: Q01DX009 (ip), vehicle: saline.

Regarding `COC(=O)C(C)N(CCCl)P(=O)(N1CC1)N1CC1` (stereo not drawn), the T/C (dose: 15.0 mg/kg/injection, schedule: Q01DX005 (ip), vehicle: saline) was 136 % of control. Besides, the survivor count by setting is: under setting [1], 6 of 6; under setting [2], 1 of 6; under setting [3], 0 of 6.
For the compound `CCN(CC)C(=S)n1nc(C)c(N=Nc2cccc(Cl)c2Cl)c1C`, the survivor count (dose: 50.0 mg/kg/injection, schedule: Q01DX005 (ip), vehicle: saline with Tween-80) is listed as 6 of 6.
Regarding `Cc1ccn2ccnc2c1`, the survivor count (dose: 200.0 mg/kg/injection, schedule: Q01DX009 (ip), vehicle: acetone) is on record as 0 of 6.
With `CCOP(=O)(OCC)C(=C(Cl)Cl)C(Cl)Cl`, the survivor count runs as follows: under setting [4], 0 of 6 and 2 of 6; under setting [5], 0 of 6.
On to `Nc1n[n+](-c2cccc([N+](=O)[O-])c2)no1`, for which the T/C runs as follows: (dose: 12.5 mg/kg/injection, schedule: Q01DX009 (ip), vehicle: other) 127 % of control; (dose: 12.5 mg/kg/injection, schedule: Q01DX009 (ip), vehicle: water) 137 % of control; (dose: 25.0 mg/kg/injection, schedule: Q01DX009 (ip), vehicle: other) 139 % of control. For the same compound, the survivor count is on record as 4 of 6 (dose: 50.0 mg/kg/injection, schedule: Q01DX009 (ip), vehicle: water) and 0 of 6 (dose: 100.0 mg/kg/injection, schedule: Q01DX009 (ip), vehicle: water).
For the compound `Nc1nc(N)c2nc(-c3ccc([N+](=O)[O-])cc3)c(Cl)nc2n1`, the survivor count under setting [6] is 3 of 6.
In the case of `O=C(/C=C/c1ccc([N+](=O)[O-])cc1)NN=C(c1ccccc1)c1ccccc1`, the T/C under setting [5] is 126 % of control.
In the case of `CN(c1ccccc1)P(C)(Cl)(c1ccccc1)c1ccccc1`, the survivor count reads like this: (dose: 25.0 mg/kg/injection, schedule: Q01DX009 (ip), vehicle: saline with Tween-80) 0 of 6; under setting [7], 0 of 6; under setting [4], 0 of 6.
In the case of `[CH3][Sn]([CH3])([S]P(=S)(c1ccccc1)c1ccccc1)[S]P(=S)(c1ccccc1)c1ccccc1`, the survivor count under setting [8] is recorded as 6 of 6.
In the case of `CNC(=S)N\N=C/C(/C=C/c1ccccc1)=N\NC(=S)NC`, the survivor count under setting [9] was 6 of 6.
Take `[O-]c1ccccc1C=NCCN1CC1.[O-]c1ccccc1C=NCCN1CC1.[Zn+2]`: the survivor count runs as follows: under setting [7], 0 of 6 and 3 of 6; under setting [4], 0 of 6; under setting [5], 0 of 6.
As for `CN1CCCOC(c2ccccc2)c2ccsc2CC1` (stereo not drawn), the survivor count reads like this: under setting [10], 2 of 6; under setting [6], 0 of 6.
Turning to `N#C[S][Hg][c]1ccccc1`, the survivor count under setting [6] is 0 of 6.
As to `COP(=O)(OC)OC=C(Cl)Cl`, the survivor count under setting [7] was 2 of 6, the survivor count under setting [4] is 0 of 6 and the survivor count under setting [5] is on record as 0 of 6.
With `[Mn+2].[NH-]CC(=O)NC(Cc1ccccc1)C(=O)O.[NH-]CC(=O)NC(Cc1ccccc1)C(=O)O` (stereo not drawn), under “dose: 400.0 mg/kg/injection, schedule: Q04DX003 (ip), vehicle: saline”, the survivor count is 6 of 6.
Regarding `NC(=O)C1=C2NC(=O)c3ccccc3C2C2=C1CCCC2` (stereo not drawn), the survivor count runs as follows: (dose: 100.0 mg/kg/injection, schedule: Q01DX005 (ip), vehicle: Klucel (hydroxypropylcellulose) (HPC)) 3 of 5; under setting [8], 0 of 5.
As to `O=S1(=O)C(c2cccc(C(F)(F)F)c2)=C(O)c2cc3ccccc3nc21`, the survivor count (dose: 50.0 mg/kg/injection, schedule: Q01DX009 (ip), vehicle: saline + Tween-80 + alcohol) is on record as 6 of 6.
As to `CCCCCCCCSC(SCCCCCCCC)C(O)C(O)C(O)CO` (stereo not drawn), the survivor count (dose: 200.0 mg/kg/injection, schedule: Q01DX005 (ip), vehicle: saline with Tween-80) is on record as 3 of 6.
For the compound `c1ccc2c(c1)[nH]c1c2c(N2CCOCC2)nn2cnnc12`, the survivor count under setting [8] is on record as 2 of 6.
For the compound `CCn1c(Cl)c(/C=N\Nc2cccc([N+](=O)[O-])c2)c2ccccc21`, the survivor count was 6 of 6 (dose: 200.0 mg/kg/injection, schedule: Q01DX001 (ip), vehicle: Klucel (hydroxypropylcellulose) (HPC)) and 6 of 6 under setting [9].
With `CCn1c(O)c(N=NC(=N)SCC(C)C)c2ccccc21`, the survivor count (dose: 25.0 mg/kg/injection, schedule: Q01DX009 (ip), vehicle: suspension in saline) is 6 of 6; the survivor count (dose: 50.0 mg/kg/injection, schedule: Q01DX009 (ip), vehicle: saline) is on record as 6 of 6; the survivor count under setting [11] was 6 of 6; the survivor count under setting [12] is reported as 6 of 6.
`CO/N=C(\C(O)C(C)O)C(OC)C1Cc2cc3cc(OC4CC(OC(C)=O)C(OC5CC(O)C(OC)C(C)O5)C(C)O4)cc(O)c3c(O)c2C(=O)C1OC1CC(OC2CC(OC3CC(C)(O)C(OC(=O)C(C)C)C(C)O3)C(O)C(C)O2)C(O)C(C)O1` (stereo not drawn): the T/C was 126 % of control (dose: 0.13 mg/kg/injection, schedule: Q01DX005 (ip), vehicle: water); 128 and 131 % of control (dose: 0.5 mg/kg/injection, schedule: Q01DX005 (ip), vehicle: water); 135 % of control (dose: 1.0 mg/kg/injection, schedule: Q01DX005 (ip), vehicle: water). Besides, the survivor count (dose: 2.0 mg/kg/injection, schedule: Q01DX005 (ip), vehicle: water) is listed as 1 of 5.
In the case of `C[S+](C)CCCNC(=O)c1csc(-c2cscn2)n1`, the survivor count (dose: 50.0 mg/kg/injection, schedule: Q01DX005 (ip), vehicle: water) is given as 1 of 6; the survivor count (dose: 100.0 mg/kg/injection, schedule: Q01DX005 (ip), vehicle: water) was 0 of 6; the survivor count (dose: 200.0 mg/kg/injection, schedule: Q01DX005 (ip), vehicle: water) is listed as 0 of 6.
With `CCC[CH2][Sn]([CH3])([CH2]CC[N+](C)(C)C)[O]C(C)=O` (stereo not drawn), the survivor count was 0 of 6 under setting [11] and 0 of 6 under setting [12].
With `C1CCN2CC3CC(CN4CCCCC34)C2C1` (stereo not drawn), the survivor count is, setting by setting: (dose: 30.0 mg/kg/injection, schedule: Q01DX005 (ip), vehicle: saline) 0 of 6; under setting [1], 0 of 6; (dose: 100.0 mg/kg/injection, schedule: Q01DX005 (ip), vehicle: saline) 0 of 6; under setting [2], 0 of 6; under setting [3], 0 of 6.
As to `Cc1c([N+](=O)[O-])cc(Br)c2ccccc12`, the survivor count is listed as 6 of 6 (dose: 200.0 mg/kg/injection, schedule: Q01DX009 (ip), vehicle: water) and 6 of 6 (dose: 400.0 mg/kg/injection, schedule: Q01DX009 (ip), vehicle: water).
`O=c1[nH]cc(N(CCCl)CCCl)c(=O)[nH]1`: the T/C was 136 % of control (dose: 0.14 mg/kg/injection, schedule: Q01DX009 (ip), vehicle: saline with Tween-80) and 145 % of control (dose: 0.23 mg/kg/injection, schedule: Q01DX009 (ip), vehicle: saline with Tween-80).
For `Cc1cccc(NC(=O)CCc2ccc(N3C(N)=NC(N)=NC3(C)C)cc2)c1`, the T/C is, setting by setting: under setting [4], 127 % of control; under setting [5], 127 and 136 % of control. Also, for the setting “dose: 300.0 mg/kg/injection, schedule: Q01DX009 (ip), vehicle: saline with Tween-80”, the survivor count is on record as 5 of 6.
Consider `CNc1nc(-c2ccc(OC)cc2)c(-c2ccc(OC)cc2)[nH]1`, for which, under “dose: 50.0 mg/kg/injection, schedule: Q04DX002 (ip), vehicle: saline with Tween-80”, the T/C was 125 % of control. Also, the survivor count (dose: 100.0 mg/kg/injection, schedule: Q04DX002 (ip), vehicle: saline with Tween-80) was 0 of 6.
Consider `CCOC(=O)c1ccc(NC(=O)Oc2cc(C)ccc2C)cc1`, for which the survivor count is, setting by setting: (dose: 30.0 mg/kg/injection, schedule: Q01DX005 (ip), vehicle: saline with Tween-80) 5 of 6; (dose: 60.0 mg/kg/injection, schedule: Q01DX005 (ip), vehicle: saline with Tween-80) 5 of 6; under setting [10], 6 of 6; under setting [6], 6 of 6.
